At least one compound was matched to its structure with a doubt left.
Tested on: capG phosphorylation in RAW 264 cells
Assay: two-dimensional anti-phosphotyrosine Western blot of RAW 264 cell lysates with and without RANKL stimulation and inhibitor pretreatment
Type: cell-based, murine
Method: RAW 264 cells were obtained from Bristol Myers Squibb Department of Metabolic Diseases. The cells were grown in minimal essential media supplemented with 5% fetal bovine serum and 1% nonessential amino acids. For assay purposes, RAW 264 cells were starved for 5 hours in serum free media and then cultured in media containing 2% fetal bovine serum and RANK ligand. When inhibitors were used, as set forth below, the cells were pre-exposed to the inhibitor for one hour prior to RANKL stimulation. To identify RANKL specific tyrosine phosphorylation, RAW264 cells were treated with RANKL in the presence and absence of PP1 [4-Amino-5-(4-methylphenyl)-7-(t-butyl)pyrazolo[3,4-d]pyrimidine], a specific inhibitor of pp60src and wortmannin, a specific inhibitor of PI3kinase (Lakkakorpi, P. T. et al., “Phosphatidylinositol 3-kinase association with the osteoclast cytoskeleton, and its involvement in osteoclast attachment and spreading”. Exp. Cell Res. 237(2):296-306 (1997)), and cell lysates evaluated by proteomic analysis. Cell lysates were separated by two-dimensional electrophoresis in duplicate and transferred to PVDF membranes. […] 35(6):672-682 (2000), for subsequent proteomic analysis with the corresponding membrane analyzed by western blotting using anti-phosphotyrosine antibody. […] Maximal fluorescence incorporation occurred within 4 hours. […]

Question: What does the source list for `COC[C@H]1OC(=O)c2coc3c2[C@@]1(C)C1=C(C3=O)[C@@H]2CCC(=O)[C@@]2(C)C[C@H]1OC(C)=O` [wortmannin]?
Answer: capG phosphorylation in RANKL-stimulated cells in the presence of inhibitor (RAW 264 cells pre-exposed to inhibitor for one hour prior to RANKL stimulation, anti-phosphotyrosine blot): decrease in capG phosphorylation; effect on the phosphorylation pattern (control unstimulated cells as well as RANKL stimulated RAW 264 cells, inhibitor pretreatment): pronounced effect
